Test results taken from patent US12521356B2, “Compositions and methods for treating pain, inflammation, infection, malaria, and sepsis” (Duke University, priority 2018, dated 2026).
Part of at least one peptide drawing is inferred or uncertain, most often the ends. Square brackets hold non-standard residues; d marks the D form. Peptide text beside a SMILES is read from it. ξ: configuration not given here. ξA = CC(N)C(=O)O

Target: T1, GPR37 (Mus musculus, UniProt Q9QY42)
T1 sequence (Q9QY42 27-600): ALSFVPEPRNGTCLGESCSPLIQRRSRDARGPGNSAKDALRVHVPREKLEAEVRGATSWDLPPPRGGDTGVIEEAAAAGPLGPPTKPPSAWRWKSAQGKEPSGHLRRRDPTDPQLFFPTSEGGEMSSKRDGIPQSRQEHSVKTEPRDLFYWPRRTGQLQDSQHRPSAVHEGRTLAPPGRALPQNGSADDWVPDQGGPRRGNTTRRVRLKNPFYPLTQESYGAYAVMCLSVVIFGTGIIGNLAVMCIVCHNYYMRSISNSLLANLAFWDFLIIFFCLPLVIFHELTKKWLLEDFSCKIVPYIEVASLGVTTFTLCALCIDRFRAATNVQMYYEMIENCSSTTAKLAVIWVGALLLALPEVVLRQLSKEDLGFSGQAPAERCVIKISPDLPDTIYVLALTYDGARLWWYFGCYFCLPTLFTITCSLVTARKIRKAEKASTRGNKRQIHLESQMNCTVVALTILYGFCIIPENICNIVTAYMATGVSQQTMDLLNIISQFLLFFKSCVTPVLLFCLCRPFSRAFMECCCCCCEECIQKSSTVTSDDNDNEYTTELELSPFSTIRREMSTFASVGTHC
Assay: Ca2+ imaging (Fluo-4AM) in peritoneal macrophages (pMΦ) from WT and Gpr37−/− mice
Type: cell-based
Procedure: Peritoneal macrophage culture. Peritoneal macrophages were collected by peritoneal lavage with 10 ml warm PBS containing of 1 mM EDTA. Cells were incubated in DMEM supplemented with 10% FBS at 37° C. for 2 h in petri dish and washed with PBS to eliminate non-adherent cells. The adherent cells were used as peritoneal macrophages. Peritoneal macrophages were used after 3 days of culture.
Calcium imaging. HEK 293 cells, with or without transfection of Gpr37, GPR32, ChemR23 or ALX1 cDNA, were loaded with 5 μM Fura-2AM (Invitrogen) for 1 hour and then were resuspended in normal external buffer (140 NaCl, 5 KCl, 2 CaCl2, 2 MgCl2, 10 HEPES, in mM, titrated to pH 7.4 with NaOH) or external Ca^2+-free buffer (140 NaCl, 2 MgCl2, 5 EGTA, 10 HEPES, in mM, titrated to pH 7.4 with NaOH). Peritoneal macrophages, collected from WT and Gpr37 KO mice, were loaded with 5 μM Fura-4AM (Invitrogen) for 1 hour and then were resuspended in normal external buffer. Images of the HEK 293 cells and macrophages with the excitation wavelength of 340 nm and 380 nm were captured with a cooled Digital CMOS camera (ORCA-Flash 4.0, Hamamatsu Photonics K.K, Japan). The ratio of fluorescence intensity of the two wavelengths in each experiment was analyzed using MetaFluor (Molecular Devices). The Shutter speed and wavelength was controlled by Lambda DG-4 system (Sutter instrument Co., Novato, CA). […]

## CC[C@H](C)[C@H](NC(=O)[C@H](CCC(=O)O)NC(=O)[C@H](CCC(=O)O)NC(=O)[C@@H](NC(=O)[C@H](C)NC(=O)[C@H](CC(N)=O)NC(=O)[C@H](CC(N)=O)NC(=O)[C@H](CC(=O)O)NC(=O)[C@@H](NC(=O)[C@H](CC(C)C)NC(=O)C(C)NC(=O)[C@@H](N)[C@@H](C)O)[C@@H](C)CC)[C@@H](C)O)C(=O)N[C@@H](CC(C)C)C(=O)N[C@@H](Cc1ccc(O)cc1)C(=O)O (some centres unmarked) [TX14] (H-T[ξA]LIDNNATEEILY-OH; N-terminus and C-terminus assumed)
1 µM, 3 min, WT vs Gpr37−/− pMΦ
  iCa2+ increase: elicited GPR37-dependent iCa^2+ increase
read-out: EC50 of iCa2+ increase, pMΦ, dose response
  EC50: 303 nM
